From patent US4103010A, “(3-Piperazinocarbonylimino-quanidino)-isoxazoles” (Aron S.A.R.L., priority 1975, dated 1978)
Where a name gives a salt, the structure may show the parent alone. For at least one compound, name, drawing or mass did not settle the structure.

System: uptake of ^3 H noradrenalin by the synaptosomes of a rat hypothalamus homogenate
Assay: inhibition of the uptake of ^3 H noradrenalin by synaptosomes of a rat hypothalamus homogenate
Format: biochemical
Settings: with respect to the control test
Excerpt: The compounds of the formula (I) are capable of modifying the accumulation of noradrenalin and particularly to inhibit the uptake of ^3 H noradrenalin by the synaptosomes of a rat hypothalamus homogenate prepared according to Banerjee, Snyder and Mechoulam (J. Pharmacol. Exp. Ther., 194, 1, 74, 1975). This inhibition of the uptake of ^3 H noradrenaline is a known property of various compounds having an activity on the central nervous system and/or on the sympathetic nervous system, particularly a hypotensive effect (J. Glowinski and J. Axelrod, effects of Drugs on the Disposition of ^3 H norepinephrine in the Rat Brain, Pharmacological Reviews, Vol. 18, No […], Part I, 1966).
They are expressed as percent inhibition of the uptake with respect to the control test.

Cc1cc(NC(=N)NC(=N)N)no1 [Example 1, (5-methyl-isoxazol-3-yl)biguanide hydrochloride]
inhibition % of the uptake of ^3 H noradrenalin (ultimate molar concentration 5 × 10^-4 M): 64% | inhibition % of the uptake of ^3 H noradrenalin (ultimate molar concentration 5 × 10^-5 M): 31%
